# Results are given in words; binding and its absence hold for the method and conditions named. Binding calls can cover weak binding; strength is not graded here. For some of these results: In cells and extracts the contact can be indirect.
# Assays:
# PDZ domain 3 of PTPN13 = target: T1, PDZ domain 3 of PTPN13 (UniProt Q64512); experiment: peptide or protein array; 1 ug of hexahistidine-tagged PDZ domain fusion proteins spotted on nitrocellulose and dried overnight, overlaid with GST-alone, GST-calpain-1-CT or GST-calpain-2-CT (800 nM); HRP-coupled anti-GST antibody, chemiluminescence; both purified
# T1 sequence: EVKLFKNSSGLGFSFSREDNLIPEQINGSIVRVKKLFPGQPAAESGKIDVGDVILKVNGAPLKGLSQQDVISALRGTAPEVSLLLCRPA
# PDZ domain 5 of PTPN13 = target: T2, PDZ domain 5 of PTPN13 (UniProt Q64512); experiment: as above
# T2 sequence: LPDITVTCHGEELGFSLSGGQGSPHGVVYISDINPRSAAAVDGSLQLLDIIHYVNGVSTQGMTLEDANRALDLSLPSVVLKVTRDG
# PDZ domain 4 of PTPN13 = target: T3, PDZ domain 4 of PTPN13 (UniProt Q64512); experiment: as above
# T3 sequence: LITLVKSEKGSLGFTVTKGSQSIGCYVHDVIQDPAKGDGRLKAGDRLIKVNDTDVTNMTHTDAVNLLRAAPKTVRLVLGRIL
# [1] = target: tyrosine phosphatase PTPN13 (mouse (endogenous in mouse brain)) (UniProt Q64512); experiment: co-IP; PTPN13 immunoprecipitated with anti-PTPN13 antibody from P2 homogenates of mouse brain under non-denaturing conditions (Pierce Classic IP Kit); rabbit IgG as negative control; with or without 10 uM calpain-2 C-terminal peptide for 1 h before co-IP
Substance,binding (PDZ domain 3 of PTPN13),binding (PDZ domain 5 of PTPN13),binding (PDZ domain 4 of PTPN13),binding [1]
GST-calpain-1 C-terminus (domain or fragment),no binding (tested: 800 nM),no binding (tested: 800 nM),no binding (tested: 800 nM),–
tau (from UniProt P10637-2),–,–,–,binds
GST-calpain-2 C-terminus (domain or fragment),binds,binds,binds,–

# From PMC5603515
